Reference: patent US20150017154A1
No constants are given. Whether binding was seen depends on the method and setting. Some entries that bind do so weakly or less than the wild type.

How the values were obtained:
[1] = biological target: caninised anti-NGF antibody comprising the caN-HCB heavy chain and the caN-kLC light chain; test: Protein A column, fractions on SDS-PAGE probed with anti-canine IgG-HRP
[2] = biological target: caninised anti-NGF antibody comprising the caN-HCC heavy chain and a caN-kLC light chain; test: as above

- binding [1]: binds
- binding [2]: binds
Substance: Staphylococcus Protein A (from UniProt P38507 37-327)
